Drawing on article PMC3566157, this text covers binding for one substance.

Chains of the proteins cited; added tags and fusions are not shown. Residues count along the entry.
UniProt Q02763, residues 23-1124: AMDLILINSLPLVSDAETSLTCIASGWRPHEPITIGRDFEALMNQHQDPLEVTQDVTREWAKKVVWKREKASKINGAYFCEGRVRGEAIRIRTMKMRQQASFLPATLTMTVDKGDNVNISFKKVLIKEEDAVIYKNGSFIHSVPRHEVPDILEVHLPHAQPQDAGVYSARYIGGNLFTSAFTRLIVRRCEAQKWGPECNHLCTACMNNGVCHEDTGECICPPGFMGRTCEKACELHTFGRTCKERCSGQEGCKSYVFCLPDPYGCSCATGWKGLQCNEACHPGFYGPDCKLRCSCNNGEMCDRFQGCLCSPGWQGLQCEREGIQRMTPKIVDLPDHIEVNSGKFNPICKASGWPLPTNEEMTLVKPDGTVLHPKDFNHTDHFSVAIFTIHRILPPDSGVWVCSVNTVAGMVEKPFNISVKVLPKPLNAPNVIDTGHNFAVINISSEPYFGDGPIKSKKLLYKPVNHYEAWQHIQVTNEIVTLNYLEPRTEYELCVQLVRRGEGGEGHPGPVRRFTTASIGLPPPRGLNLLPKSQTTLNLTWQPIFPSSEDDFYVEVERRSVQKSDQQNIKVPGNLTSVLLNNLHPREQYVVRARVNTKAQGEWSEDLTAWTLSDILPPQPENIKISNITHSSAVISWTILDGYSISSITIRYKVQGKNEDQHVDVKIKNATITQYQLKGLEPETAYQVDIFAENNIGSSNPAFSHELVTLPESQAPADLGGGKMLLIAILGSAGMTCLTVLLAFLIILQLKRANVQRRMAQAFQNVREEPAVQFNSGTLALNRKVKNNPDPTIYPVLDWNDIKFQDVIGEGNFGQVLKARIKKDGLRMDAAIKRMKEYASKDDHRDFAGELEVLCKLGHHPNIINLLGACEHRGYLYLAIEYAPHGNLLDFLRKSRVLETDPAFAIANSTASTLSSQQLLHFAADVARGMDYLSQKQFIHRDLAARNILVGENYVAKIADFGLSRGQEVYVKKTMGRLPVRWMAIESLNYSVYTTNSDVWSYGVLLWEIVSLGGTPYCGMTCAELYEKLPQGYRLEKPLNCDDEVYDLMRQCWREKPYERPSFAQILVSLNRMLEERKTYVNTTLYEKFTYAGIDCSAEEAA
UniProt O15123, residues 19-496: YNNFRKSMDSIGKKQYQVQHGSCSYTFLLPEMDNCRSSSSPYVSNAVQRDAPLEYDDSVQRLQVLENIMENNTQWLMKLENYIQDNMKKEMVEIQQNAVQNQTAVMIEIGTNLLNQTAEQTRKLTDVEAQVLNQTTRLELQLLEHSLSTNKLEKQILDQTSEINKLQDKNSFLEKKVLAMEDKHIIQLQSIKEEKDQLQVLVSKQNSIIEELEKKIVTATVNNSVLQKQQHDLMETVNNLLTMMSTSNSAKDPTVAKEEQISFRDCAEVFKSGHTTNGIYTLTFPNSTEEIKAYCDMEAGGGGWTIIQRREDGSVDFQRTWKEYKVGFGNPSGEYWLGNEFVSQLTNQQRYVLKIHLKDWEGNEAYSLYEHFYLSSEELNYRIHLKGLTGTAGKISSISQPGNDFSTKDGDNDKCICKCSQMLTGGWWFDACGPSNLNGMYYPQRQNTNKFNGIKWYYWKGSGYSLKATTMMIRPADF

Results are given in words; binding and its absence hold for the method and conditions named. Some entries that bind do so weakly or less than the wild type.

For the experiment, the target named is human Tie2 on HEK293-Tie2 cells (clone 22) (human) (UniProt Q02763). Description: flow cytometry on cells; hAng-2 bound to hTie2 on HEK293-Tie2 cells, detected with a biotinylated non-interfering anti-human Ang-2 antibody and PE-labeled Streptavidin; Ang-2 antibodies titrated from 0.0025 to 10 ug/mL; only the binder purified.

For the substance “human Angiopoietin-2 (from UniProt O15123 19-496) (ligand)”, the binding result was “binds”.
